Tests used:
[1] = Catalytic bleaching of pretreated cotton with H2O2, Berger whiteness
[2] = Catalytic bleaching of untreated raw cotton with H2O2, Berger whiteness; conditions: 2.3% H2O2, 20 μM catalyst; for Whiteness (Berger) WB: 4.7 g/l Na-borax, 60 min 70° C.; for Whiteness (Berger) Wb: carbonate buffer 5 g/l Na-carbonate, 60 min 65° C.
[3] = 0.2 g/l of each sequestrant with 30 μM [Mn2O3(Me3-TACN)2](PF6)2.H2O, 4.7 g/l Na-borax pH 9.75, 2.3% H2O2, 60 min 65° C.

With `O=P([O-])(O)CN(CCN(CCN(CP(=O)(O)O)CP(=O)(O)O)CP(=O)(O)O)CP(=O)(O)O.[Na+]` [Dequest 2066] the “Whiteness (Berger) Wb” value [1, 3] was 57.8 Berger.

With `O=C(O)C[C@H](NCCN[C@@H](CC(=O)O)C(=O)O)C(=O)O` [EDDS, reference compound] the “Whiteness (Berger) Wb” value [1, 3] was 45.5 Berger.

With `O=C(O)CN(CCN(CC(=O)O)CC(=O)O)CCN(CC(=O)O)CC(=O)O` [DTPA, diethylenetriaminepentaacetic acid, reference compound] the “Whiteness (Berger) Wb” value [1, 3] was 67.5 Berger.

With `CN1CCN(C)CCN(C)CC1.CN1CCN(C)CCN(C)CC1.F[P-](F)(F)(F)(F)F.F[P-](F)(F)(F)(F)F.O.[Mn+4].[Mn+4].[O-2].[O-2].[O-2]` [[Mn2O3(Me3-TACN)2](PF6)2•H2O, [Mn2O3(Me3-TACN)2] (PF6)2.H2O] the “Whiteness (Berger) Wb” value ([1]; pH 9, borate buffer 2.25 g/l Na-borax, 0.2 g/l DTPA, 2.3% H2O2, 30 μM catalyst, 60 min 65° C.) was 64.3 Berger, the “Whiteness (Berger) Wb” value ([1]; pH 9.25, borate buffer 2.25 g/l Na-borax, 0.2 g/l DTPA, 2.3% H2O2, 30 μM catalyst, 60 min 65° C.) was 66.9 Berger and the “Whiteness (Berger) Wb” value ([1]; pH 9.5, borate buffer 2.25 g/l Na-borax, 0.2 g/l DTPA, 2.3% H2O2, 30 μM catalyst, 60 min 65° C.) was 68.6 Berger. The “Whiteness (Berger) Wb” value ([1]; pH 9.75, borate buffer 2.25 g/l Na-borax, 0.2 g/l DTPA, 2.3% H2O2, 30 μM catalyst, 60 min 65° C.) was 69.3 Berger, the “Whiteness (Berger) Wb” value ([1]; pH 10, borate buffer 2.25 g/l Na-borax, 0.2 g/l DTPA, 2.3% H2O2, 30 μM catalyst, 60 min 65° C.) was 69.3 Berger and the “Whiteness (Berger) Wb” value ([1]; pH 10.25, borate buffer 2.25 g/l Na-borax, 0.2 g/l DTPA, 2.3% H2O2, 30 μM catalyst, 60 min 65° C.) was 68.9 Berger. For the same molecule, the “Whiteness (Berger) Wb” value ([1]; pH 10.5, borate buffer 2.25 g/l Na-borax, 0.2 g/l DTPA, 2.3% H2O2, 30 μM catalyst, 60 min 65° C.) was 67.2 Berger, the “Whiteness (Berger) WB” value ([2]; 0.1 g/l DTPA, pH 9.75) was 54.0 Berger and the “Whiteness (Berger) WB” value ([2]; 0.1 g/l DTPA, pH 10) was 48.6 Berger. The “Whiteness (Berger) WB” value ([2]; 0.2 g/l DTPA, pH 9.75) was 55.0 Berger, the “Whiteness (Berger) WB” value ([2]; 0.2 g/l DTPA, pH 10) was 54.1 Berger and the “Whiteness (Berger) Wb” value ([2]; initial pH 7.07, 0.2 g/l DTPA) was 52.2 Berger. For the same molecule, the “Whiteness (Berger) Wb” value ([2]; initial pH 7.47, 0.2 g/l DTPA) was 52.4 Berger, the “Whiteness (Berger) Wb” value ([2]; initial pH 7.95, 0.2 g/l DTPA) was 54.3 Berger and the “Whiteness (Berger) Wb” value ([2]; initial pH 8.5, 0.2 g/l DTPA) was 54.4 Berger. The “Whiteness (Berger) Wb” value ([2]; initial pH 8.96, 0.2 g/l DTPA) was 54.4 Berger, the “Whiteness (Berger) Wb” value ([2]; initial pH 9.53, 0.2 g/l DTPA) was 52.1 Berger and the “Whiteness (Berger) Wb” value ([2]; initial pH 9.76, 0.2 g/l DTPA) was 48.1 Berger. For the same molecule, the “Whiteness (Berger) Wb” value ([2]; initial pH 10.06, 0.2 g/l DTPA) was 47.3 Berger, the “Whiteness (Berger) Wb” value ([2]; initial pH 10.27, 0.2 g/l DTPA) was 47.1 Berger and the “Whiteness (Berger) Wb” value ([2]; initial pH 10.56, 0.2 g/l DTPA) was 47.3 Berger. The “Whiteness (Berger) Wb” value ([2]; initial pH 10.72, 0.2 g/l DTPA) was 45.5 Berger, the “Whiteness (Berger) Wb” value ([2]; initial pH 10.98, 0.2 g/l DTPA) was 46.0 Berger and the “Whiteness (Berger) Wb” value ([2]; initial pH 11.55, 0.2 g/l DTPA) was 39.3 Berger. The “Whiteness (Berger) WB” value ([2]; without DTPA, pH 9.75) was 42.8 Berger.

Source: patent US7972386B2, “Bleaching of substrates” (Conopco, Inc., priority 2005, dated 2011)
